Consider 13 substances from patent publication US4455303A (priority 1983, dated 1984).

A short description of data set [1]: general procedure: Boc solid-phase peptide synthesis; benzhydrylamine resin (0.40 mM NH2/g; 0.44 mMol amine/g) or LS-601 Merrifield resin (0.75 mM Cl/g); dicyclohexylcarbodiimide (DCC); BOP. The following applies: for step yield: purification step; for crude yield / crude mass: whole synthesis.
The nature of data set [2]: general procedure: Boc solid-phase peptide synthesis; p-methylbenzhydrylamine; dicyclohexylcarbodiimide (DCC); BOP. The following applies: whole synthesis, scale 208 umol.
Data set [3] can be described thus: general procedure: Boc solid-phase peptide synthesis; chloromethyl (Merrifield) polymer; dicyclohexylcarbodiimide (DCC); BOP. As to conditions: purification step.
Data set [4] in a line: general procedure: Boc solid-phase peptide synthesis; benzhydrylamine; dicyclohexylcarbodiimide (DCC); BOP.

For the substance “4-chlorophenylalanylphenylalanylvalyltyrosyllysine-amide”, in data set [1], the step yield was found to be 58% and the crude yield was determined as 100%. In addition, the crude mass in data set [1] (scale 150 umol) came out at 0.24 g.
“Phenylalanylphenylalanylvalylphenylalanyllysine-amide” returned a crude mass in data set [2] of 0.18 g. In addition, the step yield in data set [1] came out at 62%.
In data set [3], “Phenylalanylphenylalanylvalyltyrosyllysine” returned a step yield of 40%.
Consider “Tyrosylphenylalanylvalyltyrosyllysine-amide”, for which, in data set [1], the step yield is 44% and the crude yield is on record as 100%. The same substance gave a crude mass in data set [1] (scale 150 umol) of 0.230 g.
In data set [1], “Phenylalanylphenylalanyl-threo-3-chloro-L-2-amino-butyryltyrosyllysine amide” gave a step yield of 55%. The substance further yielded a crude mass in data set [1] (scale 150 umol) of 0.240 g.
On to “Phenylalanylphenylalanylvalyltyrosyllysine-amide”, for which, in data set [1], the step yield stood at 67% and the crude yield is reported as 100%. The substance also came in with a crude mass in data set [4] (whole synthesis, scale 150 umol) of 240 mg.
Take “Phenylalanylphenylalanylvalyltyrosyl-D-lysine-amide”: the step yield entry in data set [4] (purification step) is listed as “(40%)”.
As to “Phenylalanyl-4-iodophenylalanylvalyltyrosyllysine-amide”, the step yield in data set [1] is recorded as 75%. Besides, the crude mass in data set [1] (scale 234 umol) came out at 0.233 g.
Turning to “Phenylalanylphenylalanylthreonyltyrosyllysine-amide”, the step yield in data set [1] amounted to 56%. The substance also displayed a crude mass in data set [1] (scale 150 umol) of 0.20 g.
For the substance “Phenylalanyl-O-methyltyrosylvalyltyrosyllysine-amide”, in data set [1], the step yield was found to be 91%. The crude mass in data set [1] (scale 234 umol) is 0.229 g.
With “Phenylalanyl-4-chlorophenylalanylvalyltyrosyllysineamide”, the step yield in data set [1] was found to be 49%. Also, the crude mass in data set [1] (scale 150 umol) is 0.210 g.
The substance “Phenylalanylphenylalanylvalyl-4-chlorophenylalanyllysine-amide” yielded a step yield in data set [1] of 56%. Further, in data set [1] (scale 208 umol), the crude mass is recorded as 0.21 g.
In the case of “Phenylalanyltyrosylvalyltyrosyllysine-amide”, in data set [1], the step yield was 62%. In data set [1] (scale 150 umol), this substance displayed a crude mass of 0.23 g.
